Source: article PMC12266347
These are yes or no findings as the source states them, for the method shown. Binding seen in cells or lysates may run through a third protein. Here binding means that the protein was enriched with, or labelled near, the bait; the list need not be complete. Tags and fused reporters may be left off the sequences shown.

Protein sequences, listed by entry. Tags and fused reporters are not part of them.
UniProt A6NMY6: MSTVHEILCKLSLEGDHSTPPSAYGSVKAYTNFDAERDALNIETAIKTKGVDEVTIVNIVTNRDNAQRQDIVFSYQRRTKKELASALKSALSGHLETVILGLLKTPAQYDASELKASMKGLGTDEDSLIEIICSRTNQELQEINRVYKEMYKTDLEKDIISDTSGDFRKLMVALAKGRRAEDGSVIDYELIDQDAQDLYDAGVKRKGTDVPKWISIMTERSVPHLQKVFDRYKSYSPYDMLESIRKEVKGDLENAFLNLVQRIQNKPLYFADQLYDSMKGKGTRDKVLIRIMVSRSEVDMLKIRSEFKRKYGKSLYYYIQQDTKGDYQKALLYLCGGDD
UniProt P11586: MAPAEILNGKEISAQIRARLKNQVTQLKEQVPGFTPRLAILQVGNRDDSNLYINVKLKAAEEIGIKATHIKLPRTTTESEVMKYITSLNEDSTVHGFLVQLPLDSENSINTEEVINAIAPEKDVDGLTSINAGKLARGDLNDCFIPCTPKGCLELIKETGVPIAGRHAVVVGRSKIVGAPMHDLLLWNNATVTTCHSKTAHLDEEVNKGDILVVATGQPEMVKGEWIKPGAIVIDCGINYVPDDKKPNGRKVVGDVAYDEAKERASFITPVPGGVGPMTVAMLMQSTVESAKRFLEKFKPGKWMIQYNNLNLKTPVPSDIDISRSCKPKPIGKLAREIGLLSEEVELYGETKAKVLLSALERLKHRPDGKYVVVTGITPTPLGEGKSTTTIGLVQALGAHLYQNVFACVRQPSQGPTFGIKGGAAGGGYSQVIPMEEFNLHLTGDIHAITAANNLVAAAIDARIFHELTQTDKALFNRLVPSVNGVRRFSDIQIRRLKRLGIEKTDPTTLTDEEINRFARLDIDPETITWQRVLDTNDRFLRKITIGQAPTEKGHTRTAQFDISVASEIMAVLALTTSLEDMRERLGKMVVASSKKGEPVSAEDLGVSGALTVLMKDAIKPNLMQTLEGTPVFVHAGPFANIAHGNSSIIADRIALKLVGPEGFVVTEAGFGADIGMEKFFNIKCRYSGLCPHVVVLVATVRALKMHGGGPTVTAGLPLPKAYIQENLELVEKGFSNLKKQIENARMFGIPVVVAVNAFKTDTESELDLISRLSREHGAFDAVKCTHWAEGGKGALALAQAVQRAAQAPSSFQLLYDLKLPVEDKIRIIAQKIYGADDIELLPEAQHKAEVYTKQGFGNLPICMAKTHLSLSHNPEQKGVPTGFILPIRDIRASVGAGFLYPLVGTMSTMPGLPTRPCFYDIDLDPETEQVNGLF
UniProt Q07955: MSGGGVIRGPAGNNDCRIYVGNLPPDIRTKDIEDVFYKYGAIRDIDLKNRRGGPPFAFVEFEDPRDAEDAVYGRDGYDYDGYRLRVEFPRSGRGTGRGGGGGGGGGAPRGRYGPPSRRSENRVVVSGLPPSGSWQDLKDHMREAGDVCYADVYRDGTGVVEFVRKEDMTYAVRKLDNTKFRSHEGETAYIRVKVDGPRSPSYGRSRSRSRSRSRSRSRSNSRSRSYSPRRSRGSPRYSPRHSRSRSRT
UniProt P67809: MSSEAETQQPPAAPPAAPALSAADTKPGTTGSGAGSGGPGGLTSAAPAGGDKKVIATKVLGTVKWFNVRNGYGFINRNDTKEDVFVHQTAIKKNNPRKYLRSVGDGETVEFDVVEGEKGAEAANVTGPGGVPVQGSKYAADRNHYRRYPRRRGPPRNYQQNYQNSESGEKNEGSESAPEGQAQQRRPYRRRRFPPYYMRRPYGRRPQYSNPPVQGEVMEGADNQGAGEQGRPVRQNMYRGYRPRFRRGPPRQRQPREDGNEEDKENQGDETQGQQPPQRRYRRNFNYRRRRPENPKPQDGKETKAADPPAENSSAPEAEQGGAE

What follows are substances tested against T1, BioID2-CCDC43 fusion protein (Myc-BioID2-CCDC43; coiled-coil domain containing protein 43) (human) (UniProt Q96MW1) (assay: proximity labelling; BioID2: Myc-BioID2-CCDC43 transiently expressed in HEK293-T cells, 50 uM biotin for 17 h, lysis, streptavidin bead pull-down of biotinylated proteins, on-bead digestion, nLC-MS/MS; control Myc-BioID2 alone (empty vector); hits filtered at log2 fold change 0.5; two biological replicates, three technical acquisitions each).
T1 sequence: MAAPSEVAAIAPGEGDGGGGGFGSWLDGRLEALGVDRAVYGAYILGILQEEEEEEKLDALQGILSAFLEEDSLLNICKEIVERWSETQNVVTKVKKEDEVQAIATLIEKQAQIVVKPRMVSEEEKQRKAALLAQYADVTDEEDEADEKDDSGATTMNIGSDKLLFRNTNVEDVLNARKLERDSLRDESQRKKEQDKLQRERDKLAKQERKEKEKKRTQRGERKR

Substance	binding
ANXA2P2 (from UniProt A6NMY6 1-339)	binds
MTHFD1 (from UniProt P11586 1-935)	binds
SRSF1 (from UniProt Q07955 1-248)	binds
YBX1 (from UniProt P67809 1-324)	binds
